From patent US20210292680A1, “MULTIFUNCTIONAL AROMATIC ALCOHOLS FOR PERSONAL CARE, HOME CARE AND INDUSTRIAL AND INSTITUTIONAL COMPOSITIONS” (EMERALD KALAMA CHEMICAL, LLC, priority 2018, published 2021)
The name of at least one read-out is uncertain.

Legend:
[1] = Solubilization of surfactant solution at room temperature; format: physicochemical; conditions: 0.4 wt. % aromatic alcohol, compared to control
[2] = Formulation stability of general purpose cleaner on storage; format: physicochemical; conditions: 0.2-0.5 wt. % aromatic alcohol; pH 5, 7, 10; room temperature one week
Text: Rapid and complete dissolution of raw materials into aqueous solutions can prevent problems with solution instability over time. For example, a general purpose cleaner containing sodium coco fatty alcohol sulfate and 0.1 wt. % of either hydroxyethyl cellulose or xanthan gum (Table 2) becomes unstable over time across a range of pH values.
Panel (b) of FIG. 10 compares a general purpose cleaner containing hydroxyethyl cellulose at pH 7 with (right side of panel) and without (left side of panel) the use of 0.5 wt. % aromatic alcohol, stored at room temperature for one week, then shaken to disperse precipitants. Panel (c) of FIG. 10 compares a general purpose cleaner containing xanthan gum at pH 5 with (right side of panel) and without (left side of panel) the use of 0.5 wt. % aromatic alcohol (right,) stored at room temperature for one week, then shaken to disperse precipitants.
Similar observations were made with formulations of a general purpose cleaner in the absence of hydroxyethyl cellulose or xanthan gum but containing sodium coco fatty alcohol sulfate surfactant (FIG. 11). FIG. 11 compares a sample of a general purpose cleaner at pH 7 with and without 0.5 wt. % aromatic alcohol (R=3, 3-phenylpropanol). […]

| SMILES | solubilization of 2% Glucopon® 600 UP solution [1] | solubilization / stability of general purpose cleaner containing hydroxyethyl cellulose or xanthan gum [2] |
| --- | --- | --- |
| OCCc1ccccc1 [2-phenylethanol] | solubilized |  |
| OCCCc1ccccc1 [3-phenylpropanol] |  | solubilize the formulations |
